Reference: article PMC10163288
The other results are listed elsewhere or left out.

B1: il10ra_site1_normal_mot_bc09c72237e61002eddc20b9c710af39_0001_1_000000136_0001_54_65_H_._791c408cb5e71e67ed545e9073e8da87_0001_0001_0000200017_0000001_0 (protein)
chain: SKEELEEIAELVEEGDPEAQRLAKEFLKEHLGVPPEHVEEAVEYLARHAGRPPEEVLSLMLRLYG
B2: il10ra_site1_normal_mot_HHH_b2_07579_000000275_0001_1_19_H_._HHH_b2_08251_0001_0000200042_0000002_0 (protein)
chain: SSSSTEAAQIVRELLREAIELLRNGNPEEARRVLEEAEEVAEEGNNPVLEFSVRHLLRDLNSSSS
B3: il10ra_site1_normal_mot_8756ee2cf497b5429c717dfc0c0bcfd6_0001_000000186_0001_1_13_H_._HHH_b1_04775_af2_0001_0000600024_0000001_0 (protein)
chain: SSSSDETEEVAKILEEAAELDLEGNPEEARELVEEALRIAEELRNDVLRAQAEYLLRIIENSSSS
B4: il10ra_site1_normal_mot_8756ee2cf497b5429c717dfc0c0bcfd6_0001_000000186_0001_1_13_H_._HHH_b1_05999_af2_0001_0000500026_0000001_0_af2pred_0001 (protein)
chain: SSSSSEEAREALELLRKAVELASDGNPEEAREVVREAKELAEEAGNLTLRVAIEFLEKRLESSSS
B5: il10ra_site1_sap_31_mot_HHH_b1_00102_af2_000000216_0001_43_57_H_._HHH_b2_04027_af2_0001_0000300014_0000002_0_0001 (protein)
chain: SSSSSEEEEELEELLRRIEEAVRRGDPELFAELVQELLRLAFQLSDEEVLQELYELFRKAASSSS
B6: il10ra_site1_sap_24_mot_0eddeacbb14b769e73e254714f31e2f9_0001_af2_000000203_0001_37_51_H_._HHH_b2_07388_0001_0000500025_0000002_0_0001 (protein)
chain: SSSSDEELEETLRELQEAAEEGDLELFWELSRRALELARELGDEEALERILELVRLIAENASSSS
B7: il10ra_site1_normal_mot_HHH_b1_05185_000000011_0001_22_39_H_._HHH_b2_07609_af2_0001_0000400030_0000001_0_af2pred_0001 (protein)
chain: SSSSSEEAKKAAEFLVKAAKQIDDPEKVKLTLRFAKHLAELANDEELLEEIEELEEELRKSSSSS
B8: il10ra_site1_sap_13_mot_HHH_b2_00093_af2_000000025_0001_40_54_H_._HHH_b1_02486_0001_0000800030_0000001_0_0001 (protein)
chain: SSSSTEVAREVYELIEKAFELKEEGDPEEARRILEEALEIAEENNNRLLVIVLRHLLRAENSSSS
B9: il10ra_site1_sap_21_mot_HHH_b1_07962_000000254_0001_41_55_H_._HHH_b2_04450_0001_0000400041_0000001_0_0001_af2pred_0001 (protein)
chain: SSSSSQEEIRLEAIIRYAELSWELGNRHVARKAVEIAIELAEELNNPEILEELRQLLEELESSSS
B10: il10ra_site1_normal_mot_HHH_b2_03220_af2_000000223_0001_23_40_H_._HHH_b1_01843_af2_0001_0000200015_0000002_0 (protein)
chain: SSSSSSSEAEEVWRLLREALHIDDEEEVQELLEEAKRLAEELNSEVLRIVIEFLERDLSSSSSSS

target: il10ra, Q13651; assay: yeast display titration

Apparent Kd, inactive:
B1 no binding seen
B2 no binding seen
B3 no binding seen
B4 no binding seen
B5 no binding seen
B6 no binding seen
B7 no binding seen
B8 no binding seen
B9 no binding seen
B10 no binding seen

Nothing new here: an excerpt of the list.
Apparent Kd, inactive:
B6 no binding seen
B7 no binding seen
